Laboratory results taken from paper PMC10104784.
Results are given in words; binding and its absence hold for the method and conditions named. In cells and extracts the contact can be indirect. Here binding means that the protein was enriched with, or labelled near, the bait; the list need not be complete.

Amino acid sequences for entries named in this document (tags omitted).
UniProt Q921E6: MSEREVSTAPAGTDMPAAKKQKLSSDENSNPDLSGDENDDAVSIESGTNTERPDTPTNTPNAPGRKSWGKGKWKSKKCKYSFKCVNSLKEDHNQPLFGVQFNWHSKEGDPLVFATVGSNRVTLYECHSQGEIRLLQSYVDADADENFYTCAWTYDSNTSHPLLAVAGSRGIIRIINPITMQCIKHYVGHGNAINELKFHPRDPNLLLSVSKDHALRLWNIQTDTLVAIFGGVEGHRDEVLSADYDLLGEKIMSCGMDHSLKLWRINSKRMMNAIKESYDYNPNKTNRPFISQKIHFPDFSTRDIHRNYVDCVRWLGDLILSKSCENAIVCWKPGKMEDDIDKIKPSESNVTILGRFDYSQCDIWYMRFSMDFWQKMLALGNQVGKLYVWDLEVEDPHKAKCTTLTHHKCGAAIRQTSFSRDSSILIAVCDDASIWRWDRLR
UniProt Q02395: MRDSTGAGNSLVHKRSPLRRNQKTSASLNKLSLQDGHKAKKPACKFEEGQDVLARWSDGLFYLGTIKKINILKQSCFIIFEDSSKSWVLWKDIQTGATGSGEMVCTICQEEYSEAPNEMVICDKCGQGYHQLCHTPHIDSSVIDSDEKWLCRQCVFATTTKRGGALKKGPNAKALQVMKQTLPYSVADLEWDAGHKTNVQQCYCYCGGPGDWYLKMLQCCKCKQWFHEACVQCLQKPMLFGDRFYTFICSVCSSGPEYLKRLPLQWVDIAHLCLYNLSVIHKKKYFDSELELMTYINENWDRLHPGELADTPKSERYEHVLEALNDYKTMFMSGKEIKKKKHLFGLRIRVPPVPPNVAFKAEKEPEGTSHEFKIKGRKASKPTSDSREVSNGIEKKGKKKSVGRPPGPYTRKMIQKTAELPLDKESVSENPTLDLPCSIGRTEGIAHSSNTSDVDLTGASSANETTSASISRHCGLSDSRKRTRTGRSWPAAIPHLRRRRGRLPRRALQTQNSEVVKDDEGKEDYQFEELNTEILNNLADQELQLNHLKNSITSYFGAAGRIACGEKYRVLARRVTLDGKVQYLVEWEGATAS

Assays:
[1] = molecular target: embryonic ectoderm development (EED) (mouse (endogenous in TSCs and ESCs)) (UniProt Q921E6); experiment: affinity purification with mass spectrometry; EED IP from WT TSC whole-cell lysates, compared with Eed KO TSCs; Pierce MS-Compatible Magnetic IP Kit, on-bead tryptic digest, LC-MS/MS (Q-Exactive HF), MaxQuant
[2] = molecular target: embryonic ectoderm development (EED) (mouse (endogenous in TSCs and ESCs)) (UniProt Q921E6); experiment: affinity purification with mass spectrometry; EED IP from WT ESC whole-cell lysates against an IgG control; Evosep One with timsTOF SCP, DIA-PASEF, Dia-NN; t-test with Benjamini-Hochberg correction

binding [1]: binds | binding [2]: binds
Substance: MTF2 (from UniProt Q02395 1-593)
